In US20200270588A1, “GLUCOSYL TRANSFERASE POLYPEPTIDES AND METHODS OF USE” (Syngenta Participations AG, priority 2017, published 2020):

System: bx glucosyl transferases
Assay: LC/MS characterisation of enzyme product glucosides against synthetic standards
Type: biochemical

For `CON1C(=O)N(c2cc(C(F)(F)F)ccn2)C(O)[C@@H]1C` (stereo partly drawn) [Compound VI], the glucoside product formed (all bx enzymes tested) was “only the S-beta stereoisomer O-glucoside product”.

`CN1CC(O)N(c2cc(C(F)(F)F)ccn2)C1=O` (stereo not drawn) [Compound V] was tested, and the glucoside product formed (C-terminally His tagged SEQ ID NO1 and its A334R mutant) was “predominantly the conjugate product matching the 22902-13 isomer standard” and the glucoside product formed (C-terminally His-tagged Zea mays BX8 derivatives SEQ ID's 38 and 51) was “matched the minor component of the 22902-11 isomer standard”.
